Biological target: receptors for benzodiazepines in the brain membranes (3H-diazepam binding site)
Experiment: displacement of 3H-diazepam from its binding sites (method of H. Mohler et al.)
Set-up: species or system rat
Conditions: constant used to calculate Ki; read-out: constant of affinity KD of 3H-diazepam
Excerpt: The anxiolytic activity of the benzodiazepines is well known. The presence of specific receptors for benzodiazepines in the brain membranes of the rat has also been well established (Squires et al. Nature 266, 732, (1977)) and a good correlation exists between the degree of affinity of benzodiazepines for the receiving binding sites and the pharmacodynamic effects observed in the animal and in man.
The results of Table II have been obtained by testing the products according to the method of H. Mohler et al., Life Sciences 20, 2101 (1977).

**Q.** How did the Kd turn out when CN1C(=O)CN=C(c2ccccc2)c2cc(Cl)ccc21 [^3 H-diazepam, reference compound] was run?
**A.** 2.74 µM
